Consider 54 sequences from publication PMC7819943, “Rice protein-binding microarrays: a tool to detect cis-acting elements near promoter regions in rice”.

The chains behind the UniProt entries cited, without tags or fusion partners.
UniProt Q0JBA9, entry or part of it: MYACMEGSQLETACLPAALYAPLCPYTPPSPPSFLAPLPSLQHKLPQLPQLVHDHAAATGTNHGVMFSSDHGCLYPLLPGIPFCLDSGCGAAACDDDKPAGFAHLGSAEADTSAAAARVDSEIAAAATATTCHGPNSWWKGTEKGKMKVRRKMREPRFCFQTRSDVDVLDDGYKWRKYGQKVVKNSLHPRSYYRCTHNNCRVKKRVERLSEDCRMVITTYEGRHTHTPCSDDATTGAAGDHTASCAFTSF

The other results are listed elsewhere or left out.

The target in the experiment is OsWRKY34 (Oryza sativa, UniProt Q0JBA9 1-250). Put plainly: protein-binding microarray (RPBM); PBS, 2% BSA, 51.3 ng/ul salmon testes DNA, 50 uM zinc acetate, 200 nM TF, 25 C, 1 h; high values mean tight binding. To be noted: protein: recombinant; tags: N-terminal polyhistidine and DsRed monomer fusion (pET32a); label: CyDye5-dUTP incorporated in the synthesized complementary strand; 3' TTTTT single-stranded linker to array surface; dsDNA, one strand shown. In outline:
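Using Ni–NTA, transcription factors fused N-terminally to polyhistidine and DsRed were purified after expression in E. coli BL21-CodonPlus. These were incubated at 200 nM with a blocked, double-stranded custom Agilent array for 1 h at 25 °C in a buffer containing 50 µM zinc acetate, and the array was washed. The binding signal is per-feature fluorescence intensity (arbitrary units) on an Axon 4000B scanner.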
For the sequence “CATGACATCAGTTTGGCCACACCCAATGGTTCCCGCTGCCCGGAGTCACCTAGTGCAG”, the binding signal is 8370 fluorescence intensity (a.u.).

In the case of “GCGACGTGTCGTTGGGGCTGGGAGGCTGGGTCGCTCTCGCCGGAGTCACCTAGTGCAG”, the binding signal was 9830 fluorescence intensity (a.u.).

Consider “TTCCCTTCTCCGCTTTCCCTGCCTTGCAAATCCGCCAAAGCGGAGTCACCTAGTGCAG”, for which the binding signal is 8970 fluorescence intensity (a.u.).

Take “TGTTCCTAGTGGTCCTGTCGCCGGCTTGAATTGAAAAGACCGGAGTCACCTAGTGCAG”: the binding signal is 8220 fluorescence intensity (a.u.).

As to “CATGCTGTATGTTCCCACTTTGAATCAAAAAGTGCTGTTACGGAGTCACCTAGTGCAG”, the binding signal was 8290 fluorescence intensity (a.u.).

As for “GGAACATAAGTGTCCGATGGTAGCTATTTGTATACGACGTCGGAGTCACCTAGTGCAG”, the binding signal was 8230 fluorescence intensity (a.u.).

On to “CGATTTCGACCAATCTAGCCGCTATGTGCACTCCTTTTCCCGGAGTCACCTAGTGCAG”, for which the binding signal is 12100 fluorescence intensity (a.u.).

“TCATCTTCCTTAACAACTGCAGCATCACGTCATCGTCATCCGGAGTCACCTAGTGCAG”: the binding signal is 10300 fluorescence intensity (a.u.).

With “TCGTTGCCTCTCTCGCCGGCCGCCACGCTTGTCGCCCGCGCGGAGTCACCTAGTGCAG”, the binding signal was 8680 fluorescence intensity (a.u.).

Turning to “TCTCACTCGTCATCCCTTGTCTCATACGTTTTTGCTCACCCGGAGTCACCTAGTGCAG”, the binding signal was 11700 fluorescence intensity (a.u.).

Turning to “TACAGTCTATTACCTTCTGCTGTGTCTGCTTTGAAACAAACGGAGTCACCTAGTGCAG”, the binding signal was 8690 fluorescence intensity (a.u.).

As to “GAGCGCACGATCCTCCCCTCCGCCGCCGGCCTTGCTTCTTCGGAGTCACCTAGTGCAG”, the binding signal is 8370 fluorescence intensity (a.u.).

Take “ATTTTCCAGTCGTCGTTTTTAGATTGCTAAAAATATGTATCGGAGTCACCTAGTGCAG”: the binding signal was 8990 fluorescence intensity (a.u.).

For the sequence “AAAAGAGCATGTTCATACGCCCTGCATCCGTTAACAACACCGGAGTCACCTAGTGCAG”, the binding signal was 9980 fluorescence intensity (a.u.).

As for “TCACAGGCATTTCCTCAAACACCTACCGGCTACCAGGCAACGGAGTCACCTAGTGCAG”, the binding signal was 10700 fluorescence intensity (a.u.).

Turning to “TCTTCGGTTTTTTTGTTGGTAACCGATTGGTTACTATTGACGGAGTCACCTAGTGCAG”, the binding signal was 9580 fluorescence intensity (a.u.).

With “TTGGGTTGGGGTTGGGTTTGCAACTTTGCATAGCGTCGCACGGAGTCACCTAGTGCAG”, the binding signal was 11500 fluorescence intensity (a.u.).

Take “GATTTCGGTAGTCTGTTCTGTTCTTCCAACTGTCTTCTCTCGGAGTCACCTAGTGCAG”: the binding signal is 12300 fluorescence intensity (a.u.).

As for “GTGGTGGGTGGTGGCCGCGCTGCTGCGCGGTGGGTCGCATCGGAGTCACCTAGTGCAG”, the binding signal is 11400 fluorescence intensity (a.u.).

Turning to “TTATGCATCGATATATACCACATGTCAACCGATGAATTCACGGAGTCACCTAGTGCAG”, the binding signal was 9490 fluorescence intensity (a.u.).

As for “TGTGTTTTATTTTTTTTTCTGGATCGAATTGCCACATAAACGGAGTCACCTAGTGCAG”, the binding signal was 8970 fluorescence intensity (a.u.).

For the sequence “GCCGCCGACTCACCCAACCGCGCGCATCCCCGCGGCCCAACGGAGTCACCTAGTGCAG”, the binding signal is 8190 fluorescence intensity (a.u.).

As to “TTTTGCTGCATTCGCCATCGTCATTGACGAGTCGATCTATCGGAGTCACCTAGTGCAG”, the binding signal is 8390 fluorescence intensity (a.u.).

As for “ACTAGTACTCCCTCCGGTTTCATTTTAATTGACGTTTTGGCGGAGTCACCTAGTGCAG”, the binding signal is 8700 fluorescence intensity (a.u.).

On to “TTGCCGCTCCACTCCGCCGGTCGCACGCTCACTCGCCTGCCGGAGTCACCTAGTGCAG”, for which the binding signal was 8870 fluorescence intensity (a.u.).

Consider “CACAGCGCACATGCACAGCTAGCTAGCTTGACTTTTCCACCGGAGTCACCTAGTGCAG”, for which the binding signal is 9680 fluorescence intensity (a.u.).

For “TGCCATATCCTCCGGGGTGCTGTTGACCGTCTTGTTGTAACGGAGTCACCTAGTGCAG”, the binding signal is 11000 fluorescence intensity (a.u.).

As to “GGGTGATGTGTTGTATCCGGTTTTACGGTTCAGGGACCAACGGAGTCACCTAGTGCAG”, the binding signal was 11000 fluorescence intensity (a.u.).

“CTTGCTACCTGAGCTCCTCGCCGCATATACTCTCTCTCTCCGGAGTCACCTAGTGCAG”: the binding signal was 10200 fluorescence intensity (a.u.).

Turning to “TATGACGTCGTTGACTTTTTAACCAACGTTTGACCATCGTCGGAGTCACCTAGTGCAG”, the binding signal was 32900 fluorescence intensity (a.u.).

On to “CAATGACCATACGTATACTCGGCTGACTGCAGTTCTGCCGCGGAGTCACCTAGTGCAG”, for which the binding signal is 8190 fluorescence intensity (a.u.).

In the case of “TTACTCGTGGAACACGAACCACCACGAACCTGTTTTGCATCGGAGTCACCTAGTGCAG”, the binding signal was 8230 fluorescence intensity (a.u.).

“TTCCGGCACATCCTTCGTCGCGCTCGTCGCCACATCGCTTCGGAGTCACCTAGTGCAG”: the binding signal is 8880 fluorescence intensity (a.u.).

As for “ATCATTCATGCGCGTCTGGCTGCCCACTCCGCATATTCTGCGGAGTCACCTAGTGCAG”, the binding signal was 8650 fluorescence intensity (a.u.).

On to “GTCTTTCGCCGCCGCCTCTGCCTCTCGCCGATTCGCCATGCGGAGTCACCTAGTGCAG”, for which the binding signal was 11500 fluorescence intensity (a.u.).

With “ACCACCACTCGGCCACCCACCGGTCCTTGTCCAATTCGCTCGGAGTCACCTAGTGCAG”, the binding signal is 11000 fluorescence intensity (a.u.).

Consider “TTCCTTTCTTTCCCTGCTAATTGCTACCTCATCTATCCCTCGGAGTCACCTAGTGCAG”, for which the binding signal is 10100 fluorescence intensity (a.u.).

As for “TGCTCATGGTCATTTTATTGCCGGCTTCTGCTTCAGGCTACGGAGTCACCTAGTGCAG”, the binding signal is 8490 fluorescence intensity (a.u.).

Turning to “AATGACTGACTTTTTCAATCCTTTCGACCTTGGTTCCGTACGGAGTCACCTAGTGCAG”, the binding signal is 9670 fluorescence intensity (a.u.).

Take “CCACCACCACACCACCACCGGTCGCCTACTCGCCTTCGCCCGGAGTCACCTAGTGCAG”: the binding signal is 9610 fluorescence intensity (a.u.).

Regarding “GCGAGTCCCGAACTTCCAATCTTGCCGCCGCCGCGTCAGCCGGAGTCACCTAGTGCAG”, the binding signal was 8830 fluorescence intensity (a.u.).

Consider “TTCCATTTTGCTGTTTTTTAGCCTCGTGTTTTACCGTGTTCGGAGTCACCTAGTGCAG”, for which the binding signal was 9030 fluorescence intensity (a.u.).

Turning to “ACTTTTTATACGCAACTTTCATTGCATATATTTTACTTTTCGGAGTCACCTAGTGCAG”, the binding signal was 9540 fluorescence intensity (a.u.).

Take “TATGTAGTTGAACCATCCTCTCTTTTTGTCCTTTGCTACTCGGAGTCACCTAGTGCAG”: the binding signal is 9120 fluorescence intensity (a.u.).

For “ATTCGATCGCCTGGCTTATCCACCCTAACAAAAGCTTTAACGGAGTCACCTAGTGCAG”, the binding signal was 9540 fluorescence intensity (a.u.).

Turning to “TTGTGGCTCAATCGAAATTGGTCTTTGTTCAATTGTTCTTCGGAGTCACCTAGTGCAG”, the binding signal was 8150 fluorescence intensity (a.u.).

With “GCCAACCCGCGCCGCGTCTCCTCCTCGTCGTCGCAACCCGCGGAGTCACCTAGTGCAG”, the binding signal was 9200 fluorescence intensity (a.u.).

For “TAACTGACTCCACCAACTCCTCTTCCCATCAACACCATTCCGGAGTCACCTAGTGCAG”, the binding signal was 8160 fluorescence intensity (a.u.).

Take “AATTTCGTTTTTAATACGCCCAGTGAAATTTGCTGTCTAGCGGAGTCACCTAGTGCAG”: the binding signal was 17500 fluorescence intensity (a.u.).

On to “CTAGTCGTTTGGTGGCTTCAATTGAATTGACATGTAACCTCGGAGTCACCTAGTGCAG”, for which the binding signal was 10400 fluorescence intensity (a.u.).

As to “AATTCTCAGTGATACTATTATGCTTTTCGGTCAGTTGTTTCGGAGTCACCTAGTGCAG”, the binding signal is 8680 fluorescence intensity (a.u.).

“ATCAATCCCATATAAACTGGACTAGGGCTATTACCTGATACGGAGTCACCTAGTGCAG”: the binding signal is 8380 fluorescence intensity (a.u.).

Consider “CGACGAGATGGTGATGAGGTGGTGGTGGTGGTGGACTGGTCGGAGTCACCTAGTGCAG”, for which the binding signal is 13300 fluorescence intensity (a.u.).

Turning to “TCCAAGTGTACAACGTGATCTCCATCCCTTCAATTTTTCTCGGAGTCACCTAGTGCAG”, the binding signal was 8690 fluorescence intensity (a.u.).
